Test results: PubChem BioAssay AID504467 (National Center for Advancing Translational Sciences (NCATS), 2011)
The whole screen tested about 330,000 compounds, of which about 7,700 (2.3%) were called active. Inconclusive results, whose numbers are uncertain, are shown with a selection of clear calls. The call rests on the fitted dose curve; in most records, active means well fitted inhibition curve with a large enough effect; inconclusive means small, poorly fitted or top-dose-only effect, or effect the other way; inactive means flat fitted curve, though single readings scatter. Potencies beside an inconclusive call are fits to weak or partial responses and may not hold up.

Assay: qHTS screen for small molecules that inhibit ELG1-dependent DNA repair in human embryonic kidney (HEK293T) cells expressing luciferase-tagged ELG1; further: nearly all actives have a fitted effect of over 55% in size
Settings: HEK293T ELG1-luciferase reporter, luminescence, 16 h, DNA damage induced by 5-fluorouridine; series mostly up to 46.1 µM
Method in brief: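 Luminescence from the luciferase reporter, measured 30 min after ONE-Glo reagent at room temperature, was the read-out. Beforehand, 2,000 cells per well were exposed for 16 hr at 37 °C to 5-fluorouridine together with compound or vehicle.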
Potency means the concentration at half of the fitted maximal effect.

Compound	Potency
CN(C)c1ccc(/C=C/C(=O)c2ccc3c(c2)OCO3)cc1	inconclusive: 11.6 µM [activator, partial curve]
Cc1cc(=O)oc2cc(OCC(=O)N3c4ccccc4NC(=O)C3(C)C)ccc12	inconclusive: 20.6 µM [inhibitor, partial curve]
C=CCn1c(SCC(=O)Nc2ccc(C(=O)OCC)cc2)nnc1-c1sc(N)nc1C	inconclusive: 10.3 µM [inhibitor, single point]
C/C(=N\Nc1ccccn1)c1ccc(C(C)C)cc1	inconclusive: 20.6 µM [activator, partial curve]
COc1cc(/C=C(\NC(C)=O)C(=O)NC(C)(C)C)ccc1OC(C)=O	inconclusive: 14.6 µM [activator, partial curve, poor fit]
COc1ccccc1C(=O)Nc1ccc(C)cc1C(=O)c1ccccc1	inconclusive: 32.6 µM [inhibitor, single point]
Cc1cc(C(=O)OC2CCOC2=O)c2ccccc2n1 (stereo not given)	inconclusive: 1.16 µM [activator, single point]
Cc1ccc(C)c(OCC(=O)Nc2cc(NC(=O)COc3cc(C)ccc3C)cc(C(=O)O)c2)c1	inconclusive: 22.4 µM [activator, partial curve]
Cc1cc2c(cc1S(=O)(=O)Nc1cccc(C)c1C)n(C)c(=O)c(=O)n2C	inactive
CN1CCc2c(sc(NC(=O)CS(=O)(=O)c3ccccc3)c2C(N)=O)C1	inactive
CCC(C)NC(=O)C1CCCN(C(=O)Nc2ccc(F)cc2)C1 (stereo not given)	inactive
O=C(C[C@@H]1C/C=C\C[C@@H](NC(=O)OCC2c3ccccc3-c3ccccc32)C(=O)OCCNC1=O)N[C@@H](CO)Cc1ccccc1	inactive
Cn1c(Cc2ccccc2)nnc1SCC(=O)Nc1ccc(N2CCOCC2)cc1	inconclusive: 16.4 µM [activator, partial curve, poor fit]
O=C1Nc2c(Br)cccc2C1=O	inconclusive: 20.6 µM [activator, single point]
Cc1cccc(-c2onc3ccc(C(=O)/C=C/N(C)C)cc23)c1	inconclusive: 14.6 µM [inhibitor, partial curve]
CCCCSc1nc(C)cc(SCC(=O)N/N=C/c2ccccc2)n1	inconclusive: 3.66 µM [inhibitor, full curve]
CCCn1nc(C(=O)Nc2ccc3nc(C)sc3c2)c2ccccc2c1=O	inconclusive: 29.1 µM [inhibitor, single point]
Cc1ccc(S(=O)(=O)N2CCCCC2)cc1NC(=O)c1cc2ccccc2o1	inconclusive: 25.1 µM [inhibitor, single point]
NC(=O)c1oc2ccccc2c1NC(=O)C1COc2ccccc2O1 (stereo not given)	inconclusive: 14.6 µM [activator, partial curve]
CC1Cc2ccccc2N1S(=O)(=O)c1cnc[nH]1 (stereo not given)	inactive
COc1ccc(NC(=O)N2CCC(n3nnc4cc(C)ccc43)CC2)cc1	inconclusive: 23.1 µM [inhibitor, partial curve, poor fit]
O=C1ON=C(c2ccccc2)/C1=C/c1ccc(O)cc1	inconclusive: 12.6 µM [activator, single point]
CC(C)c1ccc(N2C(=O)CC(Sc3ncn[nH]3)C2=O)cc1 (stereo not given)	inactive
O=C1CN(C(=O)c2ccc(F)cc2)c2ccccc2N1	inactive

Some of these compounds in order of molar mass, rising:
Compound	Potency
O=C1CN(C(=O)c2ccc(F)cc2)c2ccccc2N1	inactive
COc1ccccc1C(=O)Nc1ccc(C)cc1C(=O)c1ccccc1	inconclusive: 32.6 µM [inhibitor, single point]
COc1cc(/C=C(\NC(C)=O)C(=O)NC(C)(C)C)ccc1OC(C)=O	inconclusive: 14.6 µM [activator, partial curve, poor fit]
CCCCSc1nc(C)cc(SCC(=O)N/N=C/c2ccccc2)n1	inconclusive: 3.66 µM [inhibitor, full curve]

Following part:

Compound	Potency
CCN(CC)CCN1C(=O)C2C(C(=O)Nc3ccc(C(C)C)cc3)C3C=CC2(O3)C1C(=O)NC1CCCCC1 (stereo not given)	inconclusive: 13 µM [activator, partial curve, poor fit]
Cn1c(=O)c(C(=O)NNC(=O)c2ccccc2Cl)c(O)c2ccccc21	inactive
COc1cc(/C=C/C(=O)OC(C)C(=O)c2ccccc2)cc(OC)c1OC (stereo not given)	inconclusive: 29.1 µM [inhibitor, single point]
CC(C)OCCCNC(=S)N1CCC(C(=O)c2ccc(Cl)cc2)CC1	inconclusive: 23.1 µM [inhibitor, single point]
CC(NC(=O)C1CCC(CNS(=O)(=O)c2ccccc2)CC1)c1ccc2c(c1)OCCO2 (stereo not given)	inconclusive: 16.4 µM [inhibitor, partial curve, poor fit]
O=C(Nc1nnc(-c2ccco2)o1)c1ccc2ccccc2c1	inconclusive: 20.6 µM [activator, single point]
CSCc1cc(N(C)c2ccccc2)nc(-c2ccccn2)n1	inconclusive: 20.6 µM [inhibitor, single point]
CC(c1ccccn1)N(Cc1ccco1)C(=S)Nc1cccc(F)c1 (stereo not given)	inconclusive: 1.16 µM [activator, single point]
O=C(Nc1cccnc1)c1ccc(S(=O)(=O)c2ccccc2)cc1	inconclusive: 20.6 µM [inhibitor, partial curve]
O=C(CSc1nc2ccc(Cl)cc2[nH]1)c1cccs1	inconclusive: 16.4 µM [activator, partial curve]
COc1ccc(N(CC(=O)N2CCN(c3cccc(C)c3)C(C)C2)S(=O)(=O)c2c(C)n[nH]c2C)cc1 (stereo not given)	inconclusive: 25.9 µM [inhibitor, single point]
CCOC(=O)C(Cc1ccccc1)C(=O)NCc1cccnc1 (stereo not given)	inconclusive: 0.231 µM [inhibitor, single point]
CCN(CC)S(=O)(=O)c1ccc(Cl)c(NC(=O)CSc2nnc(-c3cccs3)o2)c1	inactive
O=C(COc1ccccc1)n1nc(-c2ccc(Cl)cc2)nc1NCc1ccco1	inconclusive: 2.31 µM [activator, partial curve]
CN1CCN(c2cc(-c3cc(O)c4ncccc4c3)ccn2)CC1	inconclusive: 16.4 µM [inhibitor, partial curve]
O=C(Nc1sc2c(c1C(=O)O)CCC2)c1ccc(F)cc1	inactive
O=C(O)C1Nc2c(C(=O)N3CCOCC3)cccc2C2C=CCC12 (stereo not given)	inactive
O=C(Nc1ccc2c(c1)oc1ccccc12)N1CCOCC1	inconclusive: 3.66 µM [activator, full curve]
CN(C)S(=O)(=O)n1cc(/C=C(\NC(=O)c2ccccc2Cl)C(=O)NCCCn2ccnc2)c2ccccc21	active: 20.6 µM
CN1CCc2c(sc3nc(SCC(=O)N4CCOCC4)n(-c4ccc(Cl)cc4)c(=O)c23)C1	inactive
CC(=O)c1cccc(CN2CCCC(N3CCN(c4ccccc4F)CC3)C2)c1 (stereo not given)	inconclusive: 0.82 µM [activator, single point]
CCc1ccc(C2c3[nH]c4ccccc4c3CCN2C(=O)CN2CCN(CC)CC2)cc1 (stereo not given)	inactive
CC(C)(C)OC(=O)NC(Cc1ccccc1)C(=O)NCCCC(=O)O (stereo not given)	inactive
O=C(Cc1cccs1)NC(c1ccccc1)c1ccccc1	inactive

Compound	Potency
CSc1ccccc1NC(=O)COC(=O)Cn1cc(C(F)(F)F)ccc1=O	inactive
O=C(CSc1nnc(-c2ccccc2)n1-c1ccccc1)c1cccs1	inactive
Cc1cc(C)nc(-n2nc(C)cc2NC(=O)CN2CCCC2)n1	inactive
O=C(NCC(c1cccnc1)N1CCN(c2ccccc2F)CC1)c1ccccc1 (stereo not given)	inactive
COc1ccc(/C=N/n2c(C)nc3c([nH]c4ccccc43)c2=O)cc1CN1CCCC(C)(C)C1	inconclusive: 29.1 µM [activator, single point]
O=C1C(c2cc(=O)c3ccccc3[nH]2)=C(O)c2ccccc21	inconclusive: 2.59 µM [activator, partial curve]
C=CCn1c(-c2csc3c2CCC(C)C3)n[nH]c1=S (stereo not given)	inactive
N/C(=N\c1nc2ccccc2o1)NC(=O)c1ccccc1Br	inconclusive: 11.6 µM [activator, partial curve]
O=C1NC(=Nc2ccc3ccccc3c2)S/C1=C/c1ccco1	inconclusive: 29.1 µM [activator, single point]
O=C(C1CC(=O)N(C2CCCC2)C1)N1CCN(c2cccc(C(F)(F)F)c2)CC1 (stereo not given)	inconclusive: 11.6 µM [inhibitor, partial curve]
COc1ccc(N(C(=O)Cn2nnc(-c3ccc(C)o3)n2)C(C(=O)NC2CCCC2)c2ccncc2)cc1 (stereo not given)	inactive
Cc1cccc(CSCc2ccc(C(=O)O)o2)c1	inconclusive: 18.3 µM [activator, single point]
Cc1ccccc1N1CCN(CCCOc2ccc3c(C)cc(=O)oc3c2)CC1	inconclusive: 18.4 µM [inhibitor, single point]
CCN(CC)c1ccc(NC(=O)CCNS(=O)(=O)c2ccc3c(c2)CCC(=O)N3)c(C)c1	inactive
CCOc1cc2c(cc1OC)C(NC(=O)c1ccco1)CC2=O (stereo not given)	inconclusive: 0.103 µM [inhibitor, partial curve, poor fit]
CCCCn1c(N)c(N(CCOC)C(=O)COc2ccc(C(C)=O)cc2)c(=O)[nH]c1=O	inconclusive: 29.1 µM [activator, single point]
N/C(=N\OC(=O)COc1ccccc1)c1ccc(Cl)cc1	inconclusive: 18.4 µM [activator, single point]
CC(CN(C)C)CN1c2ccccc2Sc2ccccc21 (stereo not given)	inactive
Cc1ccc(NC(=O)CNS(=O)(=O)c2cccs2)cc1F	inconclusive: 25.9 µM [activator, single point]
COc1cccc(/C=N/NC(=O)c2cnccn2)c1OC	inactive
Cn1c(=O)c2c(nc(N3CCN(c4ccccc4)CC3)n2CCCc2ccccc2)n(C)c1=O	inconclusive: 3.26 µM [inhibitor, partial curve, poor fit]
O=c1oc(CCCO)cc2ccccc12	inconclusive: 20.6 µM [activator, partial curve, poor fit]

Given in CSV form: part of the list above
Compound,Potency
Cc1cccc(CSCc2ccc(C(=O)O)o2)c1,"inconclusive: 18.3 µM [activator, single point]"
Cc1ccccc1N1CCN(CCCOc2ccc3c(C)cc(=O)oc3c2)CC1,"inconclusive: 18.4 µM [inhibitor, single point]"
